Assay results as given in PMC11524394.
These are yes or no findings as the source states them, for the method shown. In cells and extracts the contact can be indirect. Some binding calls cover weakened binding; strength is not graded here.

Sequences of proteins named here, by UniProt entry; tags and fusion partners are left off.
UniProt Q9UM00: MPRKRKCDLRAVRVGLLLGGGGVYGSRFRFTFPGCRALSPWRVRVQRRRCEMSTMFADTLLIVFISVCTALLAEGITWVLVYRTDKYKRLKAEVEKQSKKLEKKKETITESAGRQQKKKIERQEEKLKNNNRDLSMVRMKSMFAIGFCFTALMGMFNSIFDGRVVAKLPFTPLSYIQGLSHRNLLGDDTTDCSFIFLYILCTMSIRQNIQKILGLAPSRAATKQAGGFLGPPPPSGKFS

Target: Transmembrane and coiled-coil domains 1 (TMCO1) (human (endogenous in DU145 or PC-3)) (UniProt Q9UM00)
Experiment: co-IP; cell lysate incubated overnight with Protein A + G magnetic beads carrying 3 ug antibody or normal IgG (negative control); detection by Western blot; which antibody precipitated and which cell line was used is not stated

binding: binds
Substance: Calreticulin (CALR) (from UniProt P27797 18-417)
